Laboratory results: PubChem BioAssay AID1259254 (NCATS, 2017)
Shown is a random part of about 59,000 reagents. About 1,550 of them (2.6%) count as active. 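G2 share is only a proxy for re-replication; each gene was hit by three separate siRNAs, and active genes were retested.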 Raw values vary from plate to plate and are shown uncorrected. No sequences are given here. Not given: the amount of reagent.

Aim: 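Genome-wide screen for genes that prevent DNA re-replication in cancer cells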 (primary screen)
Cell system: human HCT116 colorectal cancer cells
Reagents: single siRNA against human genes
Duration: 3 days
Measurement: 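Imaged Hoechst DNA stain sorts each cell into a cycle phase by DNA amount; per plate, G2 fraction set to 0% for non-targeting and 100% for GMNN siRNA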
Scale: G2 robust z-score and G2 cells, % of GMNN control: higher = more G2 cells, more excess DNA replication; raw share of cells in G2: higher = larger share of cells with G2 DNA content
Active means: 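Active siRNAs have a G2 robust z of 5 or more median absolute deviations over the median, which in these data means about 38% or higher of GMNN control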

gene | PubChem SID | G2 robust z-score | G2 cells, % of GMNN control | raw share of cells in G2 (%) | call
ETV7 | SID160740914 | 0.516 | 6.6 | 8.95 | inactive
ETV7 | SID160740915 | 0.345 | 5.4 | 6.24 | inactive
ETV7 | SID160740916 | -0.622 | -1.41 | 3.26 | inactive
IDH3A | SID160775536 | -0.448 | -0.183 | 4.13 | inactive
IDH3A | SID160775537 | -0.0523 | 2.6 | 6.67 | inactive
IDH3A | SID160775538 | 0.308 | 5.13 | 6.91 | inactive
CCDC88B | SID160762827 | -0.054 | 2.59 | 5.79 | inactive
CCDC88B | SID160762828 | -0.147 | 1.93 | 6.88 | inactive
CCDC88B | SID160762829 | 1.02 | 10.2 | 8.42 | inactive
SLC35D2 | SID160729820 | -1.65 | -8.66 | 2.89 | inactive
SLC35D2 | SID160729821 | 4.54 | 34.9 | 15.8 | inactive
SLC35D2 | SID160730497 | -0.32 | 0.718 | 4.4 | inactive
SLC4A4 | SID160720566 | 1.46 | 13.3 | 9.46 | inactive
SLC4A4 | SID160720567 | -1.11 | -4.82 | 2.35 | inactive
SLC4A4 | SID160720568 | -0.214 | 1.46 | 5.78 | inactive
OR4X1 | SID160766394 | 2.19 | 18.4 | 10.1 | inactive
OR4X1 | SID160766395 | -0.741 | -2.25 | 2.43 | inactive
OR4X1 | SID160766396 | -0.811 | -2.74 | 3.46 | inactive
ANKRD49 | SID160742315 | 0.597 | 7.17 | 6.17 | inactive
ANKRD49 | SID160742316 | 0.0291 | 3.17 | 5.61 | inactive
ANKRD49 | SID160742317 | -0.326 | 0.675 | 3.41 | inactive
ITIH1 | SID160776025 | -0.834 | -2.9 | 3.14 | inactive
ITIH1 | SID160776026 | 1.6 | 14.2 | 10.2 | inactive
ITIH1 | SID160776027 | 0.00132 | 2.98 | 6.82 | inactive
AP5S1 | SID160743519 | 0.556 | 6.88 | 7.17 | inactive
AP5S1 | SID160743520 | -0.0275 | 2.77 | 5.29 | inactive
AP5S1 | SID160743521 | 4.79 | 36.7 | 14.8 | inactive

5 entries from above, limited to “raw share of cells in G2 (%)”.
CCDC88B [SID160762827]: 5.79
CCDC88B [SID160762828]: 6.88
CCDC88B [SID160762829]: 8.42
SLC35D2 [SID160729820]: 2.89
SLC35D2 [SID160729821]: 15.8

Additional reagents follow:
gene | PubChem SID | G2 robust z-score | G2 cells, % of GMNN control | raw share of cells in G2 (%) | call
ACYP2 | SID160778484 | 0.45 | 6.14 | 6.79 | inactive
ACYP2 | SID160778495 | -0.397 | 0.177 | 4.36 | inactive
ACYP2 | SID160778506 | -0.406 | 0.114 | 3.53 | inactive
ZNF669 | SID160749629 | -0.465 | -0.304 | 2.68 | inactive
ZNF669 | SID160749630 | 2.39 | 19.8 | 14.8 | inactive
ZNF669 | SID160749631 | -1.12 | -4.9 | 2.09 | inactive
IL1R1 | SID160775678 | 0.807 | 8.65 | 7.37 | inactive
IL1R1 | SID160775679 | -0.36 | 0.431 | 5.85 | inactive
IL1R1 | SID160775680 | -0.79 | -2.59 | 4.1 | inactive
IL23A | SID160741006 | -1.4 | -6.88 | 1.14 | inactive
IL23A | SID160741008 | -0.141 | 1.98 | 5.1 | inactive
IL23A | SID160741009 | -0.94 | -3.65 | 1.99 | inactive
MOCS2 | SID160731238 | -1.12 | -4.9 | 3.47 | inactive
MOCS2 | SID160777400 | -0.424 | -0.0182 | 5.46 | inactive
MOCS2 | SID160777401 | -0.778 | -2.51 | 2.37 | inactive
MLF2 | SID160719609 | -0.0235 | 2.8 | 6.78 | inactive
MLF2 | SID160719610 | 2.34 | 19.4 | 10.9 | inactive
MLF2 | SID160719612 | 1.39 | 12.8 | 9.02 | inactive
TMEM222 | SID160751653 | -1.33 | -6.37 | 1.99 | inactive
TMEM222 | SID160751654 | -0.908 | -3.42 | 2.44 | inactive
TMEM222 | SID160751655 | -0.164 | 1.81 | 2.95 | inactive
NLN | SID160746082 | 0.868 | 9.07 | 8.72 | inactive
NLN | SID160746083 | 1.6 | 14.3 | 9.95 | inactive
NLN | SID160746084 | -0.0991 | 2.27 | 4.76 | inactive
NOC4L | SID160748541 | 4.5 | 34.7 | 20 | inactive
NOC4L | SID160748542 | -0.817 | -2.78 | 3.22 | inactive
NOC4L | SID160748543 | 2.34 | 19.4 | 11.2 | inactive
IRF1 | SID160775918 | -0.406 | 0.109 | 5.08 | inactive
IRF1 | SID160775919 | 0.712 | 7.98 | 7.13 | inactive
IRF1 | SID160775920 | 0.88 | 9.16 | 9.17 | inactive
SHISA8 | SID160725406 | -0.603 | -1.28 | 3.13 | inactive
SHISA8 | SID160725407 | 0.758 | 8.3 | 6.56 | inactive
SHISA8 | SID160725408 | -0.926 | -3.55 | 1.91 | inactive
ZFP1 | SID160759901 | 0.818 | 8.72 | 6.09 | inactive
ZFP1 | SID160759902 | 1.7 | 15 | 8.36 | inactive
ZFP1 | SID160759903 | -0.679 | -1.81 | 2.89 | inactive
IBA57 | SID160732649 | 2.93 | 23.6 | 10.2 | inactive
IBA57 | SID160760830 | -0.0709 | 2.47 | 4.49 | inactive
IBA57 | SID160760831 | 1.5 | 13.5 | 7.48 | inactive
FOSL1 | SID160719594 | 0.971 | 9.8 | 9.74 | inactive
FOSL1 | SID160719595 | -0.998 | -4.05 | 3.14 | inactive
FOSL1 | SID160719596 | -1.04 | -4.32 | 2.65 | inactive
